Literature values in US11672810B2, “Therapeutics and methods for predicting and overcoming endocrine resistance in breast cancer” (LUNELLA BIOTECH, INC., priority 2019, dated 2023).
At least one compound was matched to its structure with a doubt left.

Experiments:
[1] = tested on: mitochondrial ATP; conditions: read-out: IC-50 mitochondrial ATP-depletion; cited from earlier work
[2] = tested on: mammalian cells; conditions: cited from earlier work

C[C@H]1c2cccc(O)c2C(=O)C2=C(O)[C@]3(O)C(=O)C(C(N)=O)=C(O)[C@@H](N(C)C)[C@@H]3[C@@H](O)[C@@H]21 [Doxycycline]
IC50 [1]: 50 µM
Concentration range in which overall protein synthesis begins to be inhibited [2]: 100 to 1000 µM
